This data set concerns pAp-ethyl. Description: 2′-O-adduct formation with [32P]-labeled pAp-ethyl. The note with it: for final extent of 2′-O-adduct formation for the two compounds: 5 mM reagent, 1M7 compared with NMIA; for dependence of reaction with pAp-ethyl on Mg2+ concentration or ionic strength: control experiments (FIG. 6). On the procedure: Hydrolysis was followed by adding (1.5 mM NMIA or 2.0 mM 1M7 in 300 μL DMSO) reagent to 1.1× buffer (2.7 mL, 6.7 mM MgCl2, 111 mM NaCl, 111 mM HEPES (pH 8.0)) equilibrated at 37° C. in a cuvette. Pseudo-first-order rates were obtained by monitoring the absorbance of the hydrolysis product (at 360 nm for 2-methylaminobenzoate and 430 nm for 2-methylamino-4-nitrobenzoate). Rates of adduct formation for [^32P]-labeled pAp-ethyl (10,000 cpm/μL) were obtained by adding 10% (v/v) reagent (5 mM final NMIA or 1M7 in DMSO) to 1.1× reaction buffer, quenching the reaction with 1 vol 250 mM dithiothreitol, resolving by gel electrophoresis (30% polyacrylamide; 29:1 acrylamide:bisacrylamide; 0.4 mm×28.5 cm×23 cm; 30 W; 45 minutes), and quantifying by phosphorimaging. Reaction rates were obtained using an equation that accounts for parallel reaction of NMIA or 1M7 by 2′-O-adduct formation (kadduct) and by hydrolysis (khydrolysis): fraction product=1−exp[(kadduct[reagent]/khydrolysis)(e^−(khydrolysis)t−1)]. Synthesis of Bacillus subtilis RNase P RNA
The ability of each compound to react with 3′-phosphoethyl-5′-adenosine monophosphate (pAp-ethyl) was then evaluated. pAp-ethyl contains a 2′-hydroxyl and 3′-phosphodiester monoanion.

Consider `Cn1c(=O)oc(=O)c2ccc([N+](=O)[O-])cc21` [1M7, 1-methyl-7-nitroisatoic anhydride], for which the “final extent of 2′-O-adduct formation for the two compounds” value is “identical, within error” and the “dependence of reaction with pAp-ethyl on Mg2+ concentration or ionic strength” value was “independent of Mg^2+ concentration”.

Take `Cn1c(=O)oc(=O)c2ccccc21` [NMIA, N-methylisatoic anhydride]: the “final extent of 2′-O-adduct formation for the two compounds” value is “identical, within error” and the “dependence of reaction with pAp-ethyl on Mg2+ concentration or ionic strength” value is recorded as “strongly dependent on ionic strength”.

The values above are taken from patent publication US8318424B2, “High-throughput RNA structure analysis” (The University of North Carolina at Chapel Hill, priority 2006, dated 2012).
